Values from PubChem BioAssay AID1259308 (NCATS, 2017)
The deposit covers about 59,000 reagents; this is a part drawn at random. Of all reagents, about 1,510 (2.6%) are marked active. 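Calls use total luciferase alone and ignore viability, so some active siRNAs may act by altering cell number.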 Entries without a mark were called inactive. Reagents against one gene are numbered here. Not all columns of the deposit are shown.

Assay: 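Candidate targets for better recombinant protein yield in mammalian cells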 (primary screen)
System: human HEK293 embryonic kidney cells stably expressing firefly luciferase (HEK-CMV-Luc2-Hygro)
Reagents: single siRNA against human genes, 0.8 pmol siRNA per well
Time to read-out: 72 h
Detection: 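Reporter luminescence and viable-cell signal on separate replicate plates, given as percent of non-targeting control and median/MAD z-scores, plus per-cell luciferase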
Reading the numbers: total luciferase, z-score and total luciferase, % of control: higher = more reporter protein produced
Active means: 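Active when the median/MAD z-score for overall luciferase is greater than 3; a gene was taken forward for validation with new siRNAs if at least two of its three siRNAs passed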
Meaning of the calls: active = raised luciferase; inactive = no rise

With HSPA5 (heat shock protein family A (Hsp70) member 5) #1, how do the results read?
total luciferase, z-score: -0.382; total luciferase, % of control: 74.3

With HSPA5 (heat shock protein family A (Hsp70) member 5) #2, what does the deposit list?
total luciferase, z-score: -3.29; total luciferase, % of control: 16.4

How did the screen score HSPA5 (heat shock protein family A (Hsp70) member 5) #3?
total luciferase, z-score: 0.413; total luciferase, % of control: 90.1

How did the screen score UQCRQ (ubiquinol-cytochrome c reductase complex III subunit VII) #1?
total luciferase, z-score: -0.93; total luciferase, % of control: 63.4

What did the screen give for UQCRQ (ubiquinol-cytochrome c reductase complex III subunit VII) #2?
total luciferase, z-score: -0.525; total luciferase, % of control: 71.4

With UQCRQ (ubiquinol-cytochrome c reductase complex III subunit VII) #3, what does the deposit list?
total luciferase, z-score: 0.523; total luciferase, % of control: 92.3

How did the screen score COL6A4P2 (collagen type VI alpha 4 pseudogene 2) #1?
total luciferase, z-score: 0.797; total luciferase, % of control: 97.7

Which result is listed for COL6A4P2 (collagen type VI alpha 4 pseudogene 2) #2?
total luciferase, z-score: -0.146; total luciferase, % of control: 79

For COL6A4P2 (collagen type VI alpha 4 pseudogene 2) #3, how do the results read?
total luciferase, z-score: -1.59; total luciferase, % of control: 50.3

For LIPG (lipase G, endothelial type) #1, how do the results read?
total luciferase, z-score: -1.26; total luciferase, % of control: 56.8

With LIPG (lipase G, endothelial type) #2, what was measured?
total luciferase, z-score: 4.32 (active); total luciferase, % of control: 168

With LIPG (lipase G, endothelial type) #3, how do the results read?
total luciferase, z-score: -0.0677; total luciferase, % of control: 80.5

2 successive entries already listed, for reference:
UQCRQ (ubiquinol-cytochrome c reductase complex III subunit VII) #3 → total luciferase, z-score: 0.523; total luciferase, % of control: 92.3
COL6A4P2 (collagen type VI alpha 4 pseudogene 2) #1 → total luciferase, z-score: 0.797; total luciferase, % of control: 97.7

Additional reagents follow:
With NR1D2 (nuclear receptor subfamily 1 group D member 2) #1, how do the results read?
total luciferase, z-score: 1.44; total luciferase, % of control: 111

Which result is listed for NR1D2 (nuclear receptor subfamily 1 group D member 2) #2?
total luciferase, z-score: -0.224; total luciferase, % of control: 77.4

How did the screen score NR1D2 (nuclear receptor subfamily 1 group D member 2) #3?
total luciferase, z-score: -0.12; total luciferase, % of control: 79.5

For ELOF1 (elongation factor 1) #1, how do the results read?
total luciferase, z-score: -0.778; total luciferase, % of control: 66.4

How did the screen score ELOF1 (elongation factor 1) #2?
total luciferase, z-score: -1.19; total luciferase, % of control: 58.1

What is on record for ELOF1 (elongation factor 1) #3?
total luciferase, z-score: 0.689; total luciferase, % of control: 95.6

With PHYH (phytanoyl-CoA 2-hydroxylase) #1, what was measured?
total luciferase, z-score: 0.453; total luciferase, % of control: 90.9

How did the screen score PHYH (phytanoyl-CoA 2-hydroxylase) #2?
total luciferase, z-score: 2.62; total luciferase, % of control: 134

How did the screen score PHYH (phytanoyl-CoA 2-hydroxylase) #3?
total luciferase, z-score: -0.294; total luciferase, % of control: 76

For ACTG1P20 (actin gamma 1 pseudogene 20) #1, what does the deposit list?
total luciferase, z-score: 1.88; total luciferase, % of control: 119

How did the screen score ACTG1P20 (actin gamma 1 pseudogene 20) #2?
total luciferase, z-score: 1.43; total luciferase, % of control: 110

For ACTG1P20 (actin gamma 1 pseudogene 20) #3, what does the deposit list?
total luciferase, z-score: 1.24; total luciferase, % of control: 107

What did the screen give for CDC14C (cell division cycle 14C) #1?
total luciferase, z-score: 3.33 (active); total luciferase, % of control: 148

With CDC14C (cell division cycle 14C) #2, what was measured?
total luciferase, z-score: -0.666; total luciferase, % of control: 68.6

What did the screen give for CDC14C (cell division cycle 14C) #3?
total luciferase, z-score: -0.683; total luciferase, % of control: 68.3

For MYLK4 (myosin light chain kinase family member 4) #1, how do the results read?
total luciferase, z-score: 0.32; total luciferase, % of control: 88.2

What is on record for MYLK4 (myosin light chain kinase family member 4) #2?
total luciferase, z-score: -0.815; total luciferase, % of control: 65.7

With MYLK4 (myosin light chain kinase family member 4) #3, what was measured?
total luciferase, z-score: 0.105; total luciferase, % of control: 84

How did the screen score RNF5 (ring finger protein 5) #1?
total luciferase, z-score: 0.261; total luciferase, % of control: 87.1

With RNF5 (ring finger protein 5) #2, what was measured?
total luciferase, z-score: 1.46; total luciferase, % of control: 111

With RNF5 (ring finger protein 5) #3, how do the results read?
total luciferase, z-score: 1.54; total luciferase, % of control: 113
